Measurements from patent EP0626451A2.
No constants are given. Whether binding was seen depends on the method and setting. Some binding calls cover weakened binding; strength is not graded here.

By UniProt entry, the sequences of proteins in these tests, tags left out. Residues count along the entry.
UniProt P30886, residues 283-426: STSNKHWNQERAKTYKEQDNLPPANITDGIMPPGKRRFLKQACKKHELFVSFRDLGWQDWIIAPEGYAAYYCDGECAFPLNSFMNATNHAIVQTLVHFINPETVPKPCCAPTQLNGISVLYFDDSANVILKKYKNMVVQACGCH

Assays:
[1] = biological target: xBMP7 subunit (reduced monomer, bands of about 23 to 24 K and about 21 K) (Xenopus laevis) (UniProt P30886); test: SDS-PAGE under non-reducing against reducing conditions
[2] = biological target: xBMP4 subunit (reduced monomer, bands of about 19 K and about 17.5 K) (Xenopus laevis) (UniProt P30885); test: as above
[3] = biological target: xBMP7 subunit (reduced monomer, bands of about 23 to 24 K and about 21 K) (Xenopus laevis) (UniProt P30886); test: SDS-PAGE under non-reducing against reducing conditions with Western blot; 36 K band gives xBMP4 and xBMP7 bands on reduction

binding [1]	binding [2]	binding [3]	Molecule
binds	–	–	xBMP7 subunit (reduced monomer, bands of about 23 to 24 K and about 21 K) (from UniProt P30886 283-426) (ligand)
–	binds	binds	xBMP4 subunit (reduced monomer, bands of about 19 K and about 17.5 K) (ligand, Xenopus laevis, UniProt P30885 288-401, looked up) SPKQQRPRKKNKHCRRHSLYVDFSDVGWNDWIVAPPGYQAFYCHGDCPFPLADHLNSTNHAIVQTLVNSVNSSIPKACCVPTELSAISMLYLDEYDKVVLKNYQEMVVEGCGCR
